# Measurements published in paper PMC7862700.
# Protein sequences, listed by entry. Tags and fused reporters are not part of them. Lines headed by an entry give the natural chain unless they say otherwise; changes in a name come on top.
# UniProt Q01892: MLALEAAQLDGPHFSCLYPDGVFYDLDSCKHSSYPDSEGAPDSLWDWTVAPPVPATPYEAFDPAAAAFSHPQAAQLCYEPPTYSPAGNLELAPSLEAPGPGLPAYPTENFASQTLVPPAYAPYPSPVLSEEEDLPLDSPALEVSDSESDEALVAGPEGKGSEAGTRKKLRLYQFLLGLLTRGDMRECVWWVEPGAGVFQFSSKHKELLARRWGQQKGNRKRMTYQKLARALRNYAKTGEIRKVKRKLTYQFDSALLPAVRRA
# UniProt P41161: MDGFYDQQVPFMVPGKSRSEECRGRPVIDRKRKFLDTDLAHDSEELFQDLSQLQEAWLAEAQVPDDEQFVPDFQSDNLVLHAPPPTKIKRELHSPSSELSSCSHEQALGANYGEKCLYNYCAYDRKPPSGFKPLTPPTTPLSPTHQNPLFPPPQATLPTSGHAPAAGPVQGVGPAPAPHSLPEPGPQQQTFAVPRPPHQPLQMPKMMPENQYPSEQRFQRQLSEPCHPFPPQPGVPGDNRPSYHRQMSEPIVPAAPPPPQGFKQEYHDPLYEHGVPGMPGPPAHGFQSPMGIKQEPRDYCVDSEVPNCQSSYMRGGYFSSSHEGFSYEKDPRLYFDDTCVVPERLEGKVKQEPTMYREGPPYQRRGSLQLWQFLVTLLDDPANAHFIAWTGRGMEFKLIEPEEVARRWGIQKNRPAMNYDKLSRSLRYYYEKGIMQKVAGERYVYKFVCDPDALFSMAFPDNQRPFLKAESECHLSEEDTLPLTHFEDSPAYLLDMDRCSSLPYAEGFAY
# UniProt Q99607: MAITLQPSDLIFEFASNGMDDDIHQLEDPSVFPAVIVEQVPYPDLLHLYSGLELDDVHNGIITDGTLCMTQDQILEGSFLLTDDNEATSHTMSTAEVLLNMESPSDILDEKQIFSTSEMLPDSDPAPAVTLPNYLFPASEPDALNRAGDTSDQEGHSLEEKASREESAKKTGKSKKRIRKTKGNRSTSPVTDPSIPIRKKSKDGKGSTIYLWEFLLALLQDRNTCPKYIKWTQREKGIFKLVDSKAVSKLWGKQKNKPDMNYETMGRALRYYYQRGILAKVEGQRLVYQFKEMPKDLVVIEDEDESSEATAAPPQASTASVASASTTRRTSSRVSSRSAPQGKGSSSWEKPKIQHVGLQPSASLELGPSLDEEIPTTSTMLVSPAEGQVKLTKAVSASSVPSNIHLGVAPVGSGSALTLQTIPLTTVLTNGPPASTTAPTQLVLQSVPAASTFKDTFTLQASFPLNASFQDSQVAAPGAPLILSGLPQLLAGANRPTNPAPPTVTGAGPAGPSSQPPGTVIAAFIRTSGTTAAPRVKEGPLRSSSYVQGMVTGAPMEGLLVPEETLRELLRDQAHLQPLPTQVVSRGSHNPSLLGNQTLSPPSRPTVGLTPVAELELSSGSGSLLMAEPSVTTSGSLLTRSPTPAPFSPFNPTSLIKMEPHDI
# Only a part is listed here, and it is no random draw. At the low end of the ranking the order means little.
# Experiments:
# Test in all cases: DAPPL (digital affinity profiling via proximity ligation, sequencing)
# Conditions in all cases: 10 mM Tris-HCl pH 7.5, 50 mM NaCl, 1 mM DTT, 4% glycerol, room temperature, 30 min; GST-TFs on glutathione beads, 16-mer random dsDNA library, 0.1% …; high values mean tight binding; double strand, one strand shown; scale: fold enrichment (6-mer frequency, TF over GST control)
# FLI1 = target: T1, FLI1 (UniProt Q01543)
# T1 sequence: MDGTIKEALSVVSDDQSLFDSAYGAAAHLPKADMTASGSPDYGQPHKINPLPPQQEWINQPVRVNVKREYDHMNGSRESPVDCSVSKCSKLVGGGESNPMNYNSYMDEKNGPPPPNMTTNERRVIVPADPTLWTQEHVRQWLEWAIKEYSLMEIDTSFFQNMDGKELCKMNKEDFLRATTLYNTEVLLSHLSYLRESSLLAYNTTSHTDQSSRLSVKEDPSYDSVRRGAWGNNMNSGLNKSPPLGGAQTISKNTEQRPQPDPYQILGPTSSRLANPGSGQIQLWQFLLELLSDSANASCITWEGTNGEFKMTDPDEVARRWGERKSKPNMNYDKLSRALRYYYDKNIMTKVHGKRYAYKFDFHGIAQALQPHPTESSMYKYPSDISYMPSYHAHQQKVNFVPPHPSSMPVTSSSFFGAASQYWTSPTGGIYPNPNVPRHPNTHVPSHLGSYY
# EHF = target: T2, EHF (UniProt Q9NZC4)
# T2 sequence: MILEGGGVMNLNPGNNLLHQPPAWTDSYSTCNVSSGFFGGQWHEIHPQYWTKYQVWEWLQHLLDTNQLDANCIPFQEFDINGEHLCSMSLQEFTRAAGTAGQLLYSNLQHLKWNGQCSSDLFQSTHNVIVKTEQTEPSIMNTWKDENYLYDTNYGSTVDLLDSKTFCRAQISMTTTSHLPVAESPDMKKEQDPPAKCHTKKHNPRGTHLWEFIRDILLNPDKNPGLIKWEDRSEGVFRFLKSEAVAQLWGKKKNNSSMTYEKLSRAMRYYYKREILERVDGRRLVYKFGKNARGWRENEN
# SPIB = SPIB (UniProt Q01892)
# ETV5 = ETV5 (UniProt P41161)
# ELF4 = ELF4 (UniProt Q99607)
# ETV2 = target: T3, ETV2 (UniProt O00321)
# T3 sequence: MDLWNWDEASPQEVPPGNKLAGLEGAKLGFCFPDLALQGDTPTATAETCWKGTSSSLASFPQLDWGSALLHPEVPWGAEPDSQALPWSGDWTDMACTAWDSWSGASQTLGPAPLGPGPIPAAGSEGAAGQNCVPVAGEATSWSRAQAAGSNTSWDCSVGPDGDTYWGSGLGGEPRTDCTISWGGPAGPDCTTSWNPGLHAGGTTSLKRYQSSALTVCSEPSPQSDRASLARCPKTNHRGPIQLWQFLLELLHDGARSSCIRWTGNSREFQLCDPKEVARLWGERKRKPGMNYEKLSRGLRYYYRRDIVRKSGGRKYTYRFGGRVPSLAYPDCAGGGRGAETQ
# ETV3L = target: T4, ETV3L (UniProt Q6ZN32)
# T4 sequence: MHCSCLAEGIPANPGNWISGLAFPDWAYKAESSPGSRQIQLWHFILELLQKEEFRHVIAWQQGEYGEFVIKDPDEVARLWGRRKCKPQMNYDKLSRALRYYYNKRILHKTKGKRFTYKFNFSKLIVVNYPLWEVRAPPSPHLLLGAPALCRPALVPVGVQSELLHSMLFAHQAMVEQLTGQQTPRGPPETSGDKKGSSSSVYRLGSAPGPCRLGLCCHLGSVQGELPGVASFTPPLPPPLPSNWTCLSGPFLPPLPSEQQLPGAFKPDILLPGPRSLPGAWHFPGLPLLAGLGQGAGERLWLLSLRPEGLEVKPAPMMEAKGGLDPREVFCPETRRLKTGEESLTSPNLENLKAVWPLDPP
Sequence,binding signal (FLI1),binding signal (EHF),binding signal (SPIB),binding signal (ETV5),binding signal (ELF4),binding signal (ETV2),binding signal (ETV3L)
AGACCA,0.666,0.664,0.645,0.611,0.668,0.626,0.603
AGATTG,0.858,0.784,0.939,0.831,0.845,0.9,0.834
GAAGGC,0.787,0.923,0.932,0.894,0.842,0.908,0.961
GAGGAA,0.714,0.889,0.796,0.819,0.716,0.771,0.742
AGACAT,0.805,0.797,0.815,0.834,0.793,0.917,0.896
ATGAGA,0.82,0.897,0.815,0.868,0.875,0.894,0.86
CGTTGA,0.903,0.782,0.786,0.782,0.867,0.779,0.806
GAGAAG,0.711,0.717,0.755,0.733,0.725,0.711,0.679
TCGGCC,0.794,0.759,0.763,0.703,0.844,0.79,0.771
GTGTCA,0.813,0.822,0.874,0.859,0.847,0.909,0.786
GGGTCA,0.665,0.68,0.715,0.675,0.732,0.709,0.768
GCTCGG,0.823,0.72,0.786,0.775,0.799,0.702,0.778
GGTAAG,0.779,0.718,0.737,0.761,0.694,0.815,0.743
GAACCG,0.717,0.695,0.744,0.745,0.658,0.739,0.73
TGTCGG,0.334,0.368,0.39,0.34,0.349,0.347,0.348
GCGCAT,0.842,0.881,0.926,0.888,0.851,0.702,0.865
GCGTAG,0.908,0.805,0.783,0.792,0.805,0.943,0.832
TGACGT,0.933,0.887,0.957,0.881,0.923,0.879,0.918
GAGTTC,0.79,0.719,0.725,0.802,0.729,0.779,0.745
CAGAGG,0.618,0.618,0.578,0.612,0.64,0.696,0.598
CAGTGC,0.772,0.734,0.745,0.77,0.782,0.639,0.688

# Reprinted at random: 2 entries already listed
Sequence,binding signal (FLI1),binding signal (EHF),binding signal (SPIB),binding signal (ETV5),binding signal (ELF4),binding signal (ETV2),binding signal (ETV3L)
TGACGT,0.933,0.887,0.957,0.881,0.923,0.879,0.918
AGACCA,0.666,0.664,0.645,0.611,0.668,0.626,0.603
